Reference: the supplement of paper PMC10849652
The list shows a part of the results.

Sequences of proteins named here, by UniProt entry; tags and fusion partners are left off. A change or cut given only in a name is not applied to a line headed by its entry.
UniProt O75083: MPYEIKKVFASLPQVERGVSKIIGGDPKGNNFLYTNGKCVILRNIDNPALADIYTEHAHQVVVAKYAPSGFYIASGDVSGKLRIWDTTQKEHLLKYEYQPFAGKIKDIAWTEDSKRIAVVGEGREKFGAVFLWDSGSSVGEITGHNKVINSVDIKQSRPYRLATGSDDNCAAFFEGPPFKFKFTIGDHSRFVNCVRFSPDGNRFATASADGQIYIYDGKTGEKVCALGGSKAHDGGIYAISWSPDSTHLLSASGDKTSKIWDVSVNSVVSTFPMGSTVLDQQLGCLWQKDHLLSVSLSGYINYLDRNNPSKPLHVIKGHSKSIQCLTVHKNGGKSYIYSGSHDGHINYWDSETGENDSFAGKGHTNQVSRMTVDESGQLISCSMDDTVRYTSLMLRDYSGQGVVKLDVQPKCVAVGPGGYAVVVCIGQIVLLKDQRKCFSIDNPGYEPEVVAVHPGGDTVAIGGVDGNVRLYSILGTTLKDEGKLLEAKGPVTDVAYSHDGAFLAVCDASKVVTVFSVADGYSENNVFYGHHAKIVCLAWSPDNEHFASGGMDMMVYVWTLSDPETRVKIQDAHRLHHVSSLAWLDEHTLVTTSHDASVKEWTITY
UniProt Q9BUR4: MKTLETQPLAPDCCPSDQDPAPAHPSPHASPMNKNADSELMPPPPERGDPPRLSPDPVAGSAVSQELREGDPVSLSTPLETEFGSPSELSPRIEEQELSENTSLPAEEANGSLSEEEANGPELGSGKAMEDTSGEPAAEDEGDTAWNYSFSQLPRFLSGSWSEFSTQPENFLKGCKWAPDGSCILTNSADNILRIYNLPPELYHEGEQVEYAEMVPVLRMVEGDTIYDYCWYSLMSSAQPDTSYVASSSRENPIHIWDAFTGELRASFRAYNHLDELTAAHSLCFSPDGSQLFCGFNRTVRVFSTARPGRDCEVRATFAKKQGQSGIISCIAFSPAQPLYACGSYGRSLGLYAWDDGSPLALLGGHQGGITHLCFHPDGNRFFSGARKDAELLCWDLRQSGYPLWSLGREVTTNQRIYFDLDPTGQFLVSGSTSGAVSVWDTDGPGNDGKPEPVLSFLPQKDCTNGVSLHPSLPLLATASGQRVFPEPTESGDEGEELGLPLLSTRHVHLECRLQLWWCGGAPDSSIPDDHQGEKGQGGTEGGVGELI
UniProt Q96MX6, whole entry, looked up: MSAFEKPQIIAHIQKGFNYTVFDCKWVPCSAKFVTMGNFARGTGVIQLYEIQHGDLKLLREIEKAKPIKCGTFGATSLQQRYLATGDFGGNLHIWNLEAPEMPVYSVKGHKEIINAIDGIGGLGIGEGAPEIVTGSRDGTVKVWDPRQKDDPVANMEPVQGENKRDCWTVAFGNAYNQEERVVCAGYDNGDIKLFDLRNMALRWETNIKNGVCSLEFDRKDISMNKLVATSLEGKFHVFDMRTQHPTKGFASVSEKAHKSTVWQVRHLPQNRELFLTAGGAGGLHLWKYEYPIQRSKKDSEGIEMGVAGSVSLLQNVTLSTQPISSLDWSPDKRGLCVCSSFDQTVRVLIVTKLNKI
UniProt Q969T9: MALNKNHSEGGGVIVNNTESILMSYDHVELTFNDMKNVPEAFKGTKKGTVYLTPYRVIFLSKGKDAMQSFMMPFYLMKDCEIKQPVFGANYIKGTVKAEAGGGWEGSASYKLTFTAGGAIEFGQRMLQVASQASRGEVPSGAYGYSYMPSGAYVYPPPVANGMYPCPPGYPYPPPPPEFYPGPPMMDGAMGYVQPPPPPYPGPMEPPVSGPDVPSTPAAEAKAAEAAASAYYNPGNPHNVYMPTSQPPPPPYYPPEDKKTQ
UniProt P08670, whole entry, looked up: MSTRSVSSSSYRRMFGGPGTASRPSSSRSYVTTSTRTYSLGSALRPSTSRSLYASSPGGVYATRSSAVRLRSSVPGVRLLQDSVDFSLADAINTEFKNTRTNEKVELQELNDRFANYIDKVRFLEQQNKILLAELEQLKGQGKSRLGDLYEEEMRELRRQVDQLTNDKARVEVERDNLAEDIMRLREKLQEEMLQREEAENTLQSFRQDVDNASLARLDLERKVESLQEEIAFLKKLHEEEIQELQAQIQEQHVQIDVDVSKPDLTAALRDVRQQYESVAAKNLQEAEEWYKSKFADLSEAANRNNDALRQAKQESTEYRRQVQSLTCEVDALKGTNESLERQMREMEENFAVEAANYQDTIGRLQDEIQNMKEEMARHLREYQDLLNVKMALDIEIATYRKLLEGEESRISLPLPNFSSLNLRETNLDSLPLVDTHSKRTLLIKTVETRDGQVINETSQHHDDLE
UniProt Q9NRW7: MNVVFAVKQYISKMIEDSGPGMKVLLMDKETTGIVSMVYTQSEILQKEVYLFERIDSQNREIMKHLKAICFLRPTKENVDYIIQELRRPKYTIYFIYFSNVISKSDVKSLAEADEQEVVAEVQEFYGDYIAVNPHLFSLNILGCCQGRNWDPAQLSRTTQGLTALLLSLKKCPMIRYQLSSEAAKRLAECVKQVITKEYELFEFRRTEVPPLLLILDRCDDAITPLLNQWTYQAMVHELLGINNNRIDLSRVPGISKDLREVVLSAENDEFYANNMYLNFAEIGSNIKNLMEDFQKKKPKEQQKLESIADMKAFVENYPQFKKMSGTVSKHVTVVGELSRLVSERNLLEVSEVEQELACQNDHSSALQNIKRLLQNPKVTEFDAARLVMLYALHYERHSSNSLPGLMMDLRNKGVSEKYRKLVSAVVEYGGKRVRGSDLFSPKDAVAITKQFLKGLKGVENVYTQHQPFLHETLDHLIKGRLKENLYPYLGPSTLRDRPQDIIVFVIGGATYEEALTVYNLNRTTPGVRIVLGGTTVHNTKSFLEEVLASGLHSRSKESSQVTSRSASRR
UniProt Q8TF74: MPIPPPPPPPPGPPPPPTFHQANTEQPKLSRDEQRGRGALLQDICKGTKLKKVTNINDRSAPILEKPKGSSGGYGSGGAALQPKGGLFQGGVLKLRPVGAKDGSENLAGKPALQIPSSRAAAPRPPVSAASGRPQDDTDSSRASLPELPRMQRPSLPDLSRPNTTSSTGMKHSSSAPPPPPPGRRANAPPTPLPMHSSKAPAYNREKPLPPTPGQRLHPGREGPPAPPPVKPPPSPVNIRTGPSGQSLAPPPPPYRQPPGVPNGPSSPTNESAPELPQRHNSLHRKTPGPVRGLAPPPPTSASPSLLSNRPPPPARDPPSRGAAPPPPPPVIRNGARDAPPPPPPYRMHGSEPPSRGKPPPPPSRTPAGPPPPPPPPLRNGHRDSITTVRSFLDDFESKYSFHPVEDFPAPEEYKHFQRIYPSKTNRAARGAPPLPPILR
UniProt O95785: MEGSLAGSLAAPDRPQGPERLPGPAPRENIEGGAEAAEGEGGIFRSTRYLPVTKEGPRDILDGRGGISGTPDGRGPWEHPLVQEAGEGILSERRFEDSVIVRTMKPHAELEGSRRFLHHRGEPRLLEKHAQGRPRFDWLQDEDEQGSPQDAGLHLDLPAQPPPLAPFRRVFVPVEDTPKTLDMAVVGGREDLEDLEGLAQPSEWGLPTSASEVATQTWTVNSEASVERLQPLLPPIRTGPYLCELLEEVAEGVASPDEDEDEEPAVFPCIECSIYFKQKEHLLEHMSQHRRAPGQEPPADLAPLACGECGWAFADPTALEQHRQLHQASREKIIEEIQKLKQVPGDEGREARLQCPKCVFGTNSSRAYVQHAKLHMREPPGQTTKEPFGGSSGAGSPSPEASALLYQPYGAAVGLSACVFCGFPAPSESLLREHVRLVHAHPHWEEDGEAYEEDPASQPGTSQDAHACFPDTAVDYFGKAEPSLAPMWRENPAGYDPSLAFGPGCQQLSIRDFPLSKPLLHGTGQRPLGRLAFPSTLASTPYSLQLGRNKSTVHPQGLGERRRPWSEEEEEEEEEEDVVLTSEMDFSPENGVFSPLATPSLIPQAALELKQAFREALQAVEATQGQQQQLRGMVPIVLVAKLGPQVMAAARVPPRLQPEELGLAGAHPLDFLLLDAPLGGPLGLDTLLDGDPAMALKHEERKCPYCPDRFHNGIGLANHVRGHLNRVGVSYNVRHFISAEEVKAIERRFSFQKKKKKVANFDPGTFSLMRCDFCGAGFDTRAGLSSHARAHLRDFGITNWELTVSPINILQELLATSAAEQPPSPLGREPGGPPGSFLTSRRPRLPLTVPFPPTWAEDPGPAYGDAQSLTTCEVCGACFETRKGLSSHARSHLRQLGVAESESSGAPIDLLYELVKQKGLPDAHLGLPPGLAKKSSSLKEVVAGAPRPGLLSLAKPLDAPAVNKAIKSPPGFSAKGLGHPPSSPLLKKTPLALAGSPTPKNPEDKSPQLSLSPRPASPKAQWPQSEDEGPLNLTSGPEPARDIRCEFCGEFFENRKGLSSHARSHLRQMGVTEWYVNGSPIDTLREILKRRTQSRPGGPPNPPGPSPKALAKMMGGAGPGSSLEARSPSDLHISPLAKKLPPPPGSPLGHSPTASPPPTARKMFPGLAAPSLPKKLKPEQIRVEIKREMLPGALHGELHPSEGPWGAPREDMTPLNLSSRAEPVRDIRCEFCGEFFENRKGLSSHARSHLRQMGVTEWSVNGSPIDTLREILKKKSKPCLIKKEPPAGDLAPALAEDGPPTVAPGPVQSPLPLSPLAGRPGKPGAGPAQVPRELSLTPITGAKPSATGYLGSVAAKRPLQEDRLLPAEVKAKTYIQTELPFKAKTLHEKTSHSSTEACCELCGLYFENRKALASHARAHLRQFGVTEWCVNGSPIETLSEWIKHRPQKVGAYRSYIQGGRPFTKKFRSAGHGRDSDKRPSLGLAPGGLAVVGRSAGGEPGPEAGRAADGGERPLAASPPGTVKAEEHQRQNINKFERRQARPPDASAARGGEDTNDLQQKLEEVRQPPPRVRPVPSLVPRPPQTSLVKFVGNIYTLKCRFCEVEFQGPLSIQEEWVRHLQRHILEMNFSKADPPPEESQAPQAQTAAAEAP
UniProt O00534: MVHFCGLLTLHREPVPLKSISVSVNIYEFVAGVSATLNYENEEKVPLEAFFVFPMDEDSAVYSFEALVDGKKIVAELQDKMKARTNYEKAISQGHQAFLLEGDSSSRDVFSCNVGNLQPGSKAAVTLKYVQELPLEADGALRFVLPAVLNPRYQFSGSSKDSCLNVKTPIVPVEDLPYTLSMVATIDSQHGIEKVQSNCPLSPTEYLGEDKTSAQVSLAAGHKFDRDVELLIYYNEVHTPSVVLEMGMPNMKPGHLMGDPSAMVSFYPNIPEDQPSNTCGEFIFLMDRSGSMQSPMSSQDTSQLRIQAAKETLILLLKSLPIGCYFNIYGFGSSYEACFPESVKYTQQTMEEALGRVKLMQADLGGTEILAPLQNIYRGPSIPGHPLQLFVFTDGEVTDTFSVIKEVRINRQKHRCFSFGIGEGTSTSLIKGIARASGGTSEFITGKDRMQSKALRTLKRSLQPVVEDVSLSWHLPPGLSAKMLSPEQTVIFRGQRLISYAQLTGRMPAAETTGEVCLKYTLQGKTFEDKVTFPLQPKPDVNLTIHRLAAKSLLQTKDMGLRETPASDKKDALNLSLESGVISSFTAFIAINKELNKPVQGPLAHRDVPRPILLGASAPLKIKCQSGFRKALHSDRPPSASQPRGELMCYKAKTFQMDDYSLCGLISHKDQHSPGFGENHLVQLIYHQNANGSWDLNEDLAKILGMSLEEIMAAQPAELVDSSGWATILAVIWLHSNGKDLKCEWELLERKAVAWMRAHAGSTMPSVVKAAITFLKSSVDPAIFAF
UniProt Q9Y484: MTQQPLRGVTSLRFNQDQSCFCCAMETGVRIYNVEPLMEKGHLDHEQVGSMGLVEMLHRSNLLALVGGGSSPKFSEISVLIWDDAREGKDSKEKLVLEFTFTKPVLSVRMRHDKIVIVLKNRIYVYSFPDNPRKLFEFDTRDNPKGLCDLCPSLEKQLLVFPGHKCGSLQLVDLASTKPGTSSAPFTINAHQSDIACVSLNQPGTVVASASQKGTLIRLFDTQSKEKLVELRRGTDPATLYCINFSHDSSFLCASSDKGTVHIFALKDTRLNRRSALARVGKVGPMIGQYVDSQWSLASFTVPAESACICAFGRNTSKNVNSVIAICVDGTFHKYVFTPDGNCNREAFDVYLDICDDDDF

Experiments:
Test in all cases: log2 fold change, soluble protein after heating vs DMSO (PISA); higher = thermal stabilisation; K562 cells, 10 uM, 30 min; active = over 0.2 and 3.5 SD of the protein, either way, in both replicates (recomputed)
[1] = compound: CC1=C(C=C(C=C1)NC(=O)C2=CC(=CC=C2)C(C)(C)C#N)NC3=CC4=C(C=C3)N=CN(C4=O)C
In short: (§1)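 Quantification of soluble protein used TMTpro 16plex LC-MS/MS, with channel sums equalised. Samples were the supernatant after 21,000xg for 90 min of pooled aliquots from K562 cells (2×10^6 cells/mL) treated with 10 μM compound for 30 min, heated for 3 min over 48°C-58°C, and extracted in PBS with 0.5% NP-40 at 4°C. Values, from duplicates, describe thermal stability against control samples on a log2 fold-change scale.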

[2] = compound: CC1=C(C=C(C=C1)NC(=O)C2=CC(=CC=C2)N(C)C)NC(=O)C3=CC=C(C=C3)O
In short: as §1

[3] = compound: CC1=CC=C(C=C1)SC2=C3C=C(SC3=CN=C2)C(=O)N
In short: as §1

[4] = compound: CC1=NC(=CC=C1)C2=C(N=C(N2)C(C)(C)C)C3=CC4=NC=CN=C4C=C3
In short: as §1

[5] = compound: CCCCN(Cc1ccc(C(=O)NO)cc1)C(=O)Nc1ccccc1 [Nexturastat A]
In short: as §1

[6] = compound: CCCS(=O)(=O)Nc1ccc(F)c(C(=O)c2c[nH]c3ncc(-c4ccc(Cl)cc4)cc23)c1F [vemurafenib]
In short: as §1

[7] = compound: CCCS(=O)(=O)Nc1ccc(F)c(C(=O)c2c[nH]c3ncc(Cl)cc23)c1F
In short: as §1

[8] = compound: CCCc1cc(C)[nH]c(=O)c1CNC(=O)c1cc(-c2ccnc(N3CCN(C)CC3)c2)cc2c1cnn2C(C)C
In short: as §1

[9] = compound: CCN(CC)Cc1ccc2cc(COC(=O)Nc3ccc(C(=O)NO)cc3)ccc2c1 [givinostat]
In short: as §1

[10] = compound: CCN(CCCOc1ccc2c(Nc3cc(CC(=O)Nc4cccc(F)c4)[nH]n3)ncnc2c1)CCOP(=O)(O)O [barasertib]
In short: as §1

[11] = compound: CC[C@@H]1C(=O)N(C)c2cnc(Nc3ccc(C(=O)NC4CCN(C)CC4)cc3OC)nc2N1C1CCCC1
In short: as §1

[12] = compound: CC[C@@H]1C(=O)N(C)c2cnc(Nc3ccc(C(=O)N[C@H]4CC[C@H](N5CCN(CC6CC6)CC5)CC4)cc3OC)nc2N1C(C)C [volasertib]
In short: as §1

[13] = compound: CC[C@H](C)N1C=C(C2=C(C=C(C=C21)C3=CN=C(C=C3)N4CCNCC4)C(=O)NCC5=C(C=C(NC5=O)C)C)C
In short: as §1

[14] = compound: CC[C@H](C)[C@@H](C(=O)N[C@@H]([C@@H](C)O)C(=O)N[C@@H](CC(C)C)C(=O)[C@]1(CO1)C)NC(=O)[C@H]([C@@H](C)CC)N(C)C(=O)C [epoxomicin]
In short: as §1

[15] = compound: CCn1c(C(=O)N(C2CC2)C2CC2)cc2c3c(ncn3C)c(Nc3cc(C)n(C)n3)nc21
In short: as §1

[16] = compound: CCn1cc(-c2ccnc3[nH]c(-c4cccc(CN(C)C)c4)cc23)c(-c2ccc(NC(=O)N(C)C)cc2)n1
In short: as §1

[17] = compound: CN(C)CC(=O)Nc1ccc2[nH]c(=O)c3ccccc3c2c1
In short: as §1

[18] = compound: CN(CCOC1=CC=C(C=C1)C[C@H]2C(=O)NC(=O)S2)C3=CC=CC=N3 (racemic) [rosiglitazone]
In short: as §1

[19] = compound: CN1C2=C(C3=C1C(=O)N(N=C3)CC4=CC(=CC=C4)N)SC(=C2)S(=O)C
In short: as §1

[20] = compound: CN1CCC(CNc2ccc3ncc(-c4cccc(OC(F)(F)F)c4)n3n2)CC1
In short: as §1

Measured: log2 fold change

VWDE (UniProt Q8N2E2)
inactive: [1] -0.014 | [2] -0.039 | [3] -0.034 | [4] -0.047 | [5] 0.044 | [6] -0.032 | [7] -0.055 | [8] 0.002 | [9] -0.012 | [10] 0.029 | [11] 0.009 | [12] -0.007 | [13] -0.053 | [14] 0.041 | [15] 0.024 | [16] -0.007 | [17] -0.048 | [18] -0.032 | [19] 0.042 | [20] 0.005

VPS4B (UniProt O75351)
inactive: [1] -0.02 | [2] -0.027 | [3] -0.005 | [4] 0.067 | [5] -0.111 | [6] 0.01 | [7] 0.023 | [8] 0.012 | [9] 0.031 | [10] 0.023 | [11] -0.1 | [12] -0.131 | [13] 0.079 | [14] -0.001 | [15] 0 | [16] -0.034 | [17] 0.045 | [18] 0.044 | [19] -0.026 | [20] -0.111

VPS36 (UniProt Q86VN1)
inactive: [1] 0.007 | [2] -0.013 | [3] 0.029 | [4] 0.083 | [5] -0.089 | [6] 0.01 | [7] 0.011 | [8] -0.009 | [9] 0.034 | [10] 0.021 | [11] -0.018 | [12] -0.08 | [13] 0.046 | [14] 0.05 | [15] -0.019 | [16] -0.043 | [17] 0.003 | [18] 0.06 | [19] -0.062 | [20] 0.007

2 entries picked at random from the list so far, as already listed:
VPS4B (UniProt O75351)
inactive: [1] -0.02 | [2] -0.027 | [3] -0.005 | [4] 0.067 | [5] -0.111 | [6] 0.01 | [7] 0.023 | [8] 0.012 | [9] 0.031 | [10] 0.023 | [11] -0.1 | [12] -0.131 | [13] 0.079 | [14] -0.001 | [15] 0 | [16] -0.034 | [17] 0.045 | [18] 0.044 | [19] -0.026 | [20] -0.111

VPS36 (UniProt Q86VN1)
inactive: [1] 0.007 | [2] -0.013 | [3] 0.029 | [4] 0.083 | [5] -0.089 | [6] 0.01 | [7] 0.011 | [8] -0.009 | [9] 0.034 | [10] 0.021 | [11] -0.018 | [12] -0.08 | [13] 0.046 | [14] 0.05 | [15] -0.019 | [16] -0.043 | [17] 0.003 | [18] 0.06 | [19] -0.062 | [20] 0.007

More records follow:

WDR1 (UniProt O75083)
inactive: [1] 0.042 | [2] -0.017 | [3] -0.012 | [4] 0.044 | [5] -0.022 | [6] 0.009 | [7] 0.01 | [8] -0.02 | [9] -0.068 | [10] 0.003 | [11] 0.004 | [12] 0.014 | [13] 0.05 | [14] 0.027 | [15] -0.023 | [16] -0.098 | [17] 0.015 | [18] 0.038 | [19] -0.091 | [20] -0.034

WRAP53 (UniProt Q9BUR4)
inactive: [1] 0.039 | [2] 0 | [3] -0.144 | [4] -0.069 | [5] 0.011 | [6] -0.075 | [7] -0.114 | [8] 0.076 | [9] 0.015 | [10] 0.037 | [11] 0.123 | [12] 0.025 | [13] -0.034 | [14] -0.073 | [15] 0.031 | [16] -0.03 | [17] -0.034 | [18] 0.016 | [19] 0.065 | [20] 0.067

VPS26C (UniProt O14972)
inactive: [1] 0.062 | [2] 0 | [3] -0.05 | [4] -0.095 | [5] 0.048 | [6] -0.045 | [7] -0.009 | [8] 0.076 | [9] 0.016 | [10] 0.07 | [11] 0.061 | [12] -0.19 | [13] 0.01 | [14] 0.022 | [15] 0.15 | [16] -0.02 | [17] -0.052 | [18] 0.014 | [19] -0.001 | [20] -0.061

WDR92 (UniProt Q96MX6)
inactive: [1] 0.042 | [2] 0.031 | [3] -0.034 | [4] -0.011 | [5] 0.084 | [6] -0.031 | [7] 0.085 | [8] 0.074 | [9] -0.068 | [10] 0.071 | [11] -0.071 | [12] 0.077 | [13] 0.082 | [14] 0.044 | [15] -0.144 | [16] -0.032 | [17] -0.058 | [18] 0.024 | [19] -0.061 | [20] 0.185

WBP2 (UniProt Q969T9)
inactive: [1] -0.035 | [2] -0.009 | [3] -0.002 | [4] 0.024 | [5] 0.019 | [6] 0.026 | [7] -0.029 | [8] 0.03 | [9] -0.007 | [10] 0 | [11] -0.058 | [12] -0.017 | [13] 0.006 | [14] 0.019 | [15] 0.029 | [16] -0.072 | [17] 0.011 | [18] -0.004 | [19] -0.029 | [20] 0.09

VIM (UniProt P08670)
inactive: [1] -0.036 | [2] -0.027 | [3] 0.013 | [4] -0.263 | [5] 0.178 | [6] -0.063 | [7] -0.031 | [8] 0.096 | [9] 0.088 | [10] -0.043 | [11] 0.198 | [12] 0.102 | [13] -0.031 | [14] -0.145 | [15] 0.102 | [16] 0.457 | [17] -0.151 | [18] -0.099 | [19] 0.423 | [20] 0.242

WBP11 (UniProt Q9Y2W2)
inactive: [1] -0.049 | [2] -0.013 | [3] 0.009 | [4] 0.011 | [5] 0.016 | [6] 0.019 | [7] 0.014 | [8] -0.003 | [9] -0.013 | [10] -0.033 | [11] 0.012 | [12] -0.013 | [13] -0.024 | [14] 0 | [15] 0.006 | [16] -0.009 | [17] -0.03 | [18] -0.002 | [19] -0.027 | [20] 0.094

VPS45 (UniProt Q9NRW7)
inactive: [1] -0.033 | [2] -0.052 | [3] 0.011 | [4] 0.008 | [5] 0.061 | [6] 0.041 | [7] 0.048 | [8] 0.042 | [9] 0.058 | [10] -0.027 | [11] -0.04 | [12] -0.193 | [13] 0.006 | [14] -0.012 | [15] -0.093 | [16] -0.031 | [17] 0.045 | [18] 0.018 | [19] -0.006 | [20] -0.024

WIPF2 (UniProt Q8TF74)
inactive: [1] -0.017 | [2] 0.004 | [3] -0.052 | [4] 0.015 | [5] 0.006 | [6] -0.049 | [7] -0.001 | [8] -0.012 | [9] -0.029 | [10] 0.009 | [11] 0 | [12] 0.048 | [13] 0.066 | [14] 0.029 | [15] -0.064 | [16] 0.04 | [17] -0.043 | [18] 0.007 | [19] -0.019 | [20] -0.141

WIZ (UniProt O95785)
inactive: [1] -0.064 | [2] 0.069 | [3] -0.018 | [4] -0.006 | [5] 0.039 | [6] -0.013 | [7] -0.046 | [8] -0.025 | [9] 0.017 | [10] -0.026 | [11] 0.045 | [12] 0.016 | [13] 0.044 | [14] -0.026 | [15] 0.001 | [16] -0.022 | [17] -0.007 | [18] 0.058 | [19] 0.022 | [20] -0.126

WDR48 (UniProt Q8TAF3)
inactive: [1] 0.026 | [2] 0.009 | [3] 0.005 | [4] 0.009 | [5] -0.018 | [6] -0.025 | [7] -0.004 | [8] -0.057 | [9] -0.069 | [10] -0.003 | [11] 0.024 | [12] 0.028 | [13] -0.015 | [14] -0.025 | [15] 0.003 | [16] 0.002 | [17] 0.006 | [18] -0.015 | [19] -0.039 | [20] 0.021

VWA5A (UniProt O00534)
inactive: [1] -0.049 | [2] -0.02 | [3] 0.014 | [4] 0.048 | [5] -0.016 | [6] 0.077 | [7] 0.037 | [8] 0.001 | [9] 0.037 | [10] 0.062 | [11] -0.113 | [12] -0.169 | [13] -0.026 | [14] -0.008 | [15] -0.03 | [16] 0.058 | [17] 0.027 | [18] 0.061 | [19] -0.05 | [20] -0.061

WDR45 (UniProt Q9Y484)
inactive: [1] 0.001 | [2] 0.015 | [3] -0.009 | [4] 0.018 | [5] -0.054 | [6] 0.03 | [7] 0.004 | [8] -0.012 | [9] -0.021 | [10] 0.011 | [11] -0.005 | [12] -0.093 | [13] -0.03 | [14] -0.002 | [15] -0.012 | [16] -0.046 | [17] 0.048 | [18] 0.046 | [19] 0.012 | [20] -0.062
